Source: PubChem BioAssay AID720505 (Drosophila RNAi Screening Center, 2013)

- Assay: 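Fly regulators or components of the CRAC channel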 (primary screen)
- Cells: Drosophila S2R+ cells
- Reagents: long dsRNA against Drosophila genes
- Conditions: thapsigargin (2 µM) in calcium-free buffer to empty internal stores, then 2 mM calcium added back
- Measured: 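Fluo-4 signal in 384-well plates read on a FLIPR after thapsigargin (2 µM, calcium-free) store depletion and 2 mM calcium add-back; unnormalised mean endpoint per well; screen run twice, selected wells retested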
- Scale: calcium signal and retest calcium signal: higher = more calcium entry after store depletion
- Hit rule: 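About 1500 genes called as lowering calcium entry, by varying amounts, judged against per-plate control wells with STIM1 as positive and Rho1 as negative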
- Calls: active = called as lowering calcium entry; inactive = not called
The screen tested about 20,000 reagents; shown is a random part of those that have a named target and a result. Of all reagents, about 2,100 (10%) were called active. 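Raw plate signals without normalisation; calls rest on control-based scores that were not deposited; replicate 2 separates called from uncalled poorly.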 The numbers tell different reagents against one gene apart. A plus sign joins genes that one reagent is predicted to hit. No sequences are given here. Not stated in the record: the amount of reagent, the time to read-out.

The first 3 records as a preview:
gene	reagent	calcium signal, replicate 1	calcium signal, replicate 2	retest calcium signal, replicate 1	retest calcium signal, replicate 2	outcome
Hacl (GeneID 37285)	1	133	166			inactive
CG13018 (GeneID 50224)	1	93.3	158			inactive
hop (GeneID 32080)	1	100	109			inactive

The list itself, from the start:
gene	reagent	calcium signal, replicate 1	calcium signal, replicate 2	retest calcium signal, replicate 1	retest calcium signal, replicate 2	outcome
Hacl (GeneID 37285)	1	133	166			inactive
CG13018 (GeneID 50224)	1	93.3	158			inactive
hop (GeneID 32080)	1	100	109			inactive
hop (GeneID 32080)	2	106	144			inactive
HINT1 (GeneID 33471)	1	223	167			inactive
CG13155 (GeneID 36346)	1	128	192			inactive
CG33777 (GeneID 3772311)	1					active
Nprl3 (GeneID 39550)	1	63	87.9			active
CG14985 (GeneID 38470)	1	82.1	99.2			inactive
Trm1 (GeneID 34656)	1	75.2	87.5			inactive
TBC1d7 + mRpS24	1	199	122			inactive
ttm2 (GeneID 38049)	1	92.6	62.7			inactive
tous (GeneID 37582)	1	139	129			inactive
CG10064 (GeneID 38761)	1	88.5	80.5			inactive
mv (retired record) (GeneID 247694)	1	87.6	114			inactive
mv (retired record) (GeneID 247694)	2	79.1	102			inactive
P5CS (GeneID 40443)	1	110	110			inactive
P5CS (GeneID 40443)	2	88.3	110			inactive
Asciz (GeneID 38381)	1	84.5	110			inactive
Rsbp15 (GeneID 41481)	1	72.2	133			active
Sc2 (GeneID 38457)	1	129	115			inactive
Cbp80 (GeneID 44409)	1	93.7	110			inactive
CG9759 (GeneID 41661)	1	95	107			inactive
mRpL16 (GeneID 31150)	1	110	85.8			inactive
CG11168 (GeneID 42981)	1	140	213			inactive
Patj (GeneID 44100)	1	176	106			inactive
CG42390 (GeneID 42600)	1	165	180			inactive
CG42390 (GeneID 42600)	2	113	181			inactive
CG42390 (GeneID 42600)	3	101	97.6			inactive
CG12885 (GeneID 43308)	1	108	100			inactive
ldd (GeneID 318066)	1	196	90.2			inactive
ldd (GeneID 318066)	2	107	155			inactive
sncRNA:430e + His2A:CG33859 + His2A:CG33817 + 37 more	1	49.4	75.1			active
srw (GeneID 38525)	1	116	117			inactive
Obp56f (GeneID 246668)	1	89.6	148			inactive
PNUTS (GeneID 33270)	1	126	200			inactive
PNUTS (GeneID 33270)	2	94.3	168			inactive
CG14759 (GeneID 35803)	1	167	190			inactive
CG32249 (GeneID 317939)	1	7432	127			inactive
CG32249 (GeneID 317939)	2	87.8	68.5			inactive
CG32249 (GeneID 317939)	3	138	198			inactive
Seipin (GeneID 31245)	1	95	138			inactive
Sirt4 (GeneID 31480)	1	153	132			inactive
CG31178 (GeneID 42575)	1	193	141			inactive
Nos (GeneID 34495)	1	93.7	139			inactive
CG5805 (GeneID 42950)	1	153	203			inactive
AP-2sigma (GeneID 42525)	1	65.2	86.9			active
Rab8 (GeneID 40168)	1	125	123			inactive
CG15279 (GeneID 34863)	1	115	126			inactive
ZnT41F (GeneID 35513)	1	124	161			inactive
CG31809 (GeneID 318954)	1	75.2	131			inactive
Or47a (GeneID 36187)	1	84.5	134			inactive
Wdr82 (GeneID 34153)	1	111	290	90.4	121	inactive
Wdr82 (GeneID 34153)	2	157	107			inactive
CG18538 (GeneID 37095)	1	180	141			inactive
synr (GeneID 33702)	1	177	107			inactive
cv-2 (GeneID 45280)	1	96.8	6587			inactive
cv-2 (GeneID 45280)	2	171	101			inactive
CG12672 (GeneID 32781)	1	126	171	5873	98.7	inactive
CG10055 (GeneID 40862)	1	115	137			inactive
CG2200 (GeneID 32258)	1	104	80.3			inactive
CG10041 (GeneID 41496)	1	70.2	130			active
VhaAC45RP (GeneID 318563)	1	102	153			inactive
Gsc (GeneID 33240)	1	126	136			inactive
Indy-2 + CG33934	1	192	288			inactive
Indy-2 + CG33934	2	109	101			inactive
Gr22d (GeneID 14462661)	1	148	134			inactive
CG12506 (GeneID 33249)	1	141	122			inactive
ph-d (GeneID 44889)	1	76.7	129			inactive
ph-d (GeneID 44889)	2	104	142			inactive
CG1946 (GeneID 35720)	1	134	209			inactive
CG13295 (GeneID 38692)	1	50.9	52.6			active
Sems (GeneID 40315)	1	101	150			inactive
Tps1 (GeneID 33642)	1	143	238			inactive
CG3842 (GeneID 31576)	1	121	86.3			inactive
CG6610 (GeneID 38693)	1	109	44.4			inactive
RhoGAP19D (GeneID 33048)	1	137	143			inactive
RhoGAP19D (GeneID 33048)	2	140	120			inactive
CG16972 (GeneID 34715)	1	62.4	137			active
Alg14 (GeneID 32479)	1	72.8	133			active
Sec24AB (GeneID 36025)	1	205	195			inactive
CG6984 (GeneID 36926)	1	92.3	120			inactive
G6P (GeneID 33476)	1	141	137			inactive
Bicra (GeneID 43435)	1	220	154			inactive
ppk12 (GeneID 37566)	1	84	116			inactive
Task7 (GeneID 41125)	1	147	95.5			inactive
CG6398 (GeneID 32761)	1	183	164			inactive
Aps (GeneID 39226)	1	79.9	130			inactive
neb (GeneID 35293)	1	62.3	133			active
luna (GeneID 2768719)	1	111	177			inactive
luna (GeneID 2768719)	2	111	180			inactive
luna (GeneID 2768719)	3	102	180	6582	148	inactive
Ucp4C (GeneID 33832)	1	162	112			inactive
cu (GeneID 41339)	1	86.4	108			inactive
cu (GeneID 41339)	2	104	90.8			inactive
CG32572 (GeneID 32657)	1	109	145			inactive
CG32572 (GeneID 32657)	2	105	165			inactive
Obp99b (GeneID 43497)	1	154	147			inactive
CR41501 (GeneID 5740839)	1	113	96.3			inactive
SelR (GeneID 41309)	1	160	80.8			inactive
betaTub60D (GeneID 37888)	1	95.8	144			inactive
betaTub60D (GeneID 37888)	2	119	278			inactive
Art1 (GeneID 41295)	1	121	105			inactive
CG3961 (GeneID 40056)	1	46.9	99.5			active
CG3961 (GeneID 40056)	2	108	134			inactive
CG10841 (GeneID 41665)	1	104	84.1			inactive
